Over roughly 33,000 sequences, “E-score (-0.5 to 0.5)” has its median near -8e-05; the highest 2% begin near 0.23. The list shows a part of the results.
target: T1, Nrg2 (UniProt P38082); assay: PBM E-score (8-mer binding enrichment) (E-score (-0.5 to 0.5)); higher = stronger / more preferred TF binding; conditions: protein concentration: 100 nM; construct: GST-full length
T1 sequence: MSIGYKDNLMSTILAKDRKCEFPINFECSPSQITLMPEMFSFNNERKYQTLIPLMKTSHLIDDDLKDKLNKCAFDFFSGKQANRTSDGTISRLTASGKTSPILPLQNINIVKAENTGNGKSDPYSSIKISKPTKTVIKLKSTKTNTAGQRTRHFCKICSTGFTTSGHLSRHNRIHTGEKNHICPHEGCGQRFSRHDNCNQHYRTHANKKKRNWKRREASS
How it was run: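 The E-score, a modified Wilcoxon-Mann-Whitney statistic, was computed by the Universal PBM Analysis Suite for every ungapped eight-base word pooled with its reverse complement. Scans behind it were normalised with masliner after bound GST-tagged yeast transcription factors were detected with fluorescent anti-GST. The proteins, at about 100-200 nM, had been applied to universal all-10-mer Agilent arrays made double-stranded by primer extension.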

Row | Sequence | PBM E-score
1 | CATAATGA | 0.041
2 | ATTGTGCA | 0.0869
3 | CTCTCAAG | 0.0208
4 | GAAGTCAC | -0.175
5 | AGCTCTTC | -0.0113
6 | CTCCCCCC | -0.365
7 | TATTTACA | -0.037
8 | ATCGACTG | 0.0939
9 | CTTTTCGC | 0.0709
10 | TCAAAACA | 0.0219
11 | CCTGCCAC | -0.119
12 | TCCGACAA | -0.0198
13 | CGGGTGAG | -0.177
14 | TATAAGAA | 0.12
15 | ATGCTCTA | -0.142
16 | AATTTGTC | -5e-05
17 | CTTATAAG | -0.125
18 | GAATGAAA | 0.103
19 | CGGTGTCA | -0.128
20 | ACTAGATG | 0.0769
21 | AAAGCTCC | -0.11
22 | AACACTCC | 0.0648
23 | CTCCGACC | -0.284
24 | AACGGGTG | 0.156
25 | ACCCGCTG | -0.133

Row | Sequence | PBM E-score
26 | CCCCGGCG | -0.211
27 | AGCTAAGC | -0.0767
28 | CAACTCCG | 0.105
29 | AACGTAGA | 0.00953
30 | CTCTTGCC | -0.164
31 | ATCCGCAA | -0.0409
32 | AAACGGGC | -0.00186
33 | TCACTCAA | -0.0418
34 | AAGTATGC | -0.0791
35 | ATATTTCG | 0.13
36 | GCTTACCC | -0.119
37 | GCTTAATA | 0.0947
38 | ATGCCGTC | -0.0561
39 | ATGGTCTG | 0.033
40 | CATTCGAA | 0.0948
41 | ATTCGTTG | 0.239
42 | GATGTAAC | -0.0657
43 | GATGGGAC | -0.07
44 | AGGAGTAC | -0.221
45 | CACCATTC | -0.0432
46 | ACCAATGA | 0.00102
47 | AATTTTAT | 0.166
48 | ATAGTTGG | 0.0177
49 | AGTCCGAA | 0.0201
50 | AATAAGAG | 0.115

Row | Sequence | PBM E-score
51 | GTGACGAA | 0.0579
52 | ACCGGGAC | -0.0511
53 | CCCAAGGG | -0.0432
54 | ATGTCCAA | -0.00031
55 | TATGCTCA | 0.0339
56 | TGCGTAAA | -0.0469
57 | GCTGTGAA | 0.0603
58 | CCTTGCAA | 0.0406
59 | ACAGGTTA | -0.014
60 | CCCAACCA | 0.0948
61 | ACGGGAGA | -0.0998
62 | ATTCAAAC | 0.0759
63 | AGTAGTCG | 0.047
64 | GTTCACCA | -0.057
65 | AATTCATC | -0.115
66 | AATGAGCA | -0.0915
67 | AGCCCCAG | -0.0267
68 | GAAAACCC | 0.184
69 | CGTTCTTC | 0.0246
70 | GCGAAGAC | -0.16
71 | CGGAAGTA | -0.0225
72 | GATAATAA | 0.19
73 | CGGGCATC | -0.24
74 | GATATTGC | -0.015
75 | CCCCACCG | 0.026

Row | Sequence | PBM E-score
76 | AGGTGCCG | 0.0309
77 | GCCGAAGC | -0.14
78 | ATGCCCAG | -0.0939
79 | CAGTAAGC | -0.017
80 | CGCTAAAC | -0.0747
81 | CCGTAGAG | -0.0733
82 | AAGGCATT | -0.17
83 | CCTTATTA | 0.135
84 | AATTGACT | 0.132
85 | ACCCACTC | 0.0398
86 | CCCCAGAG | -0.197
87 | CAGGACTC | -0.203
88 | AAAGGTGT | -0.0261
89 | CACGTACC | -0.144
90 | ACCAGCCA | -0.0291
91 | ATCGGCCA | -0.037
92 | CGTGTCAC | -0.0649
93 | GACGACGC | 0.0588
94 | ATACGTCA | 0.0277
95 | AGCGGTCG | -0.305
96 | ACCTCCCA | -0.329
97 | ATGTTCTA | 0.00747
98 | AAACTTGC | 0.148
99 | GACTGACC | -0.188
100 | ACCCACAA | 0.213

Row | Sequence | PBM E-score
101 | AGAGCAGC | -0.134
102 | CAACTCGG | 0.0991
103 | TCCATTCA | 0.0643
104 | GGCTGCTA | -0.0689
105 | CCGCCCTC | -0.112
106 | GCACTAGC | 0.00252
107 | GACCAATA | 0.0307
108 | AGTGCCAT | -0.152
109 | CCGTCGGA | -0.0984
110 | ACCATGCT | -0.0336
111 | CAAGTTTC | -0.00709
112 | CTAGCTGC | -0.135
113 | TACCAGAA | 0.215
114 | AGAAATGA | 0.0395
115 | ATGACCCC | 0.0144
116 | ACCGACTC | 0.00596
117 | CGTTCGAC | -0.0963
118 | GGGCTGAC | -0.0165
119 | AAGTAGAG | -0.143
120 | ACGGGTAC | -0.171
121 | CTATTACC | -0.143
122 | CCAGTGGC | 0.0732
123 | TAAAATGA | 0.254
124 | AAGGTCGG | -0.0301
125 | CCCACTAA | 0.134

Taken from above.
PBM E-score with TCCATTCA reads 0.0643
PBM E-score with AGAAATGA reads 0.0395
PBM E-score with ACCGACTC reads 0.00596

Pulled one by one from the entries so far (6):
Row | Sequence | PBM E-score
8 | ATCGACTG | 0.0939
40 | CATTCGAA | 0.0948
88 | AAAGGTGT | -0.0261
87 | CAGGACTC | -0.203
73 | CGGGCATC | -0.24
4 | GAAGTCAC | -0.175

(cont.)

Row | Sequence | PBM E-score
126 | ACACATCT | 0.0216
127 | AGCTTCTA | -0.148
128 | AATAAGTG | -0.0251
129 | GAATCCTC | -0.1
130 | CCCAGCTC | 0.018
131 | CAGAGTCC | 0.0801
132 | CGTGGCAC | -0.165
133 | ACGTACAA | 0.0534
134 | CTTTAGGC | -0.219
135 | CCCTAGCC | -0.0659
136 | GCCCGGCA | -0.287
137 | ATGGGAGG | 0.0102
138 | ATGACGCA | 0.151
139 | CTCAACGA | -0.0772
140 | CGGGTGTA | -0.0883
141 | TACAGCGA | -0.147
142 | CTTGTACC | 0.0322
143 | GCTTTCCC | -0.0594
144 | AAGGTTAC | 0.0901
145 | ATTCAATG | 0.0492
146 | AAATGGCT | 0.0362
147 | ACTACTAC | 0.0486
148 | ATCGTCTC | -0.0282
149 | TGCATGCA | 0.233
150 | AGCTCGTA | 0.0247

Row | Sequence | PBM E-score
151 | AGCTCACT | -0.0273
152 | CCAGCCAA | -0.0522
153 | CGTTGCTA | 0.059
154 | AGTTCGTG | 0.0974
155 | AGCTATCG | -0.0852
156 | CGTGTTGA | -0.129
157 | CTTAACGA | 0.123
158 | GTACTTGA | -0.156
159 | CCTCGTAG | -0.083
160 | CGCGGCAA | 0.0589
161 | ATTTCATA | 0.143
162 | ACTACATG | 0.0529
163 | GTCAGGCA | -0.108
164 | CGGATACG | -0.0756
165 | ATCTACGG | 0.00925
166 | ACAAAGAG | -0.0475
167 | CAGTCGGC | -0.12
168 | CAGTGATG | -0.0399
169 | AAAAAATC | 0.126
170 | ACTTGGAC | 0.157
171 | CCGCTGAG | -0.0786
172 | GGGGGGAC | -0.374

From the supplement of paper PMC3334620
